# Source: patent publication US9770026B2, “Substituted pyrimidine compound and uses thereof” (Shenyang Sinochem Agrochemicals R&D Co., Ltd., priority 2012, dated 2017)
# Read-outs that look alike come from different tables or passages of the source. Some of these results come from one statement about several compounds together. Some ranges recur; such a range may be that of the whole group of compounds.
# Key:
# Diamond back moth = experiment: insecticidal activity against diamond back moth, airbrush spray; type: in vivo; details: mortality after 72 hrs
# Procedure: (§1) Compounds were dissolved in mixed solvent (acetone:methanol=1:1), and diluted to required concentration with water containing 0.1% of tween 80.
# (§2) Diamond back moth, armyworm, peach aphid and carmine spider mite were used as targets and the method of spraying by airbrush was used for determination of insecticidal biassays.
# (§3) The method of spraying by airbrush: The cabbage leaves were made into plates of 2 cm diameter by use of punch. A test solution (0.5 ml) was sprayed by airbrush at the pressure of 0.7 kg/cm^2 to both sides of every plate. 10 Second instar larvae were put into the petri-dishes after the leaf disc air-dried and 3 replicates were set for each treatment. Then the insects were maintained in observation room (25° C., 60˜70% R.H.). Scores were conducted and mortalities were calculated after 72 hrs.
# carmine spider mite = experiment: bioactivity test against carmine spider mite, airbrush spray; type: in vivo; details: mortality after 72 hrs
# Procedure: as §1, §2
# The method: Broadbean shoots with two true leaves in pot were taken, the healthy adults of carmine spider mite were inoculated to the leaves. The adults were counted and then sprayed with airbrush at the pressure of 0.7 kg/cm^2 and at dose of 0.5 ml. 3 replicates were set for each treatment. And then they were maintained in standard observation room. Scores were conducted and mortalities were calculated after 72 hrs.
# cucumber downy mildew = experiment: protectant activity in vivo against cucumber downy mildew
# rice blast = type: cell-based; details: in vitro
# wheat powdery mildew = experiment: protectant activity in vivo against wheat powdery mildew
# [1] = system: Green peach aphids (Myzus Persicae Sulzer); experiment: bioactivity test against green peach aphid, airbrush foliar spray; type: in vivo; details: death rate after 48 hrs
# Procedure: as §1, §2
# Method: Filter papers were put in culture dishes (Diameter=6 cm), and water was dripped on filter papers for preserving moisture. Green peach aphids (Myzus Persicae Sulzer) were maintained on cabbage. Leaves (Diameter=3 cm) of approximately 15-30 aphids were put in the culture dishes. Bioactivity tests were used the method of Airbrush Foliar Spray, pressure=10 psi (0.7 kg/cm2), spray volume=0.5 mL. The studies were conducted at […] 25±1 C in incubator cabinets with 60±5% RH. Survey the survival aphids after 48 hrs and calculate the death rates.
# corn rust = experiment: protectant activity in vivo against corn rust
# armyworm = experiment: bioactivity test against armyworm, airbrush spray; type: in vivo; details: mortality after 72 h
# Procedure: as §1, §2
# as §3, with “corn” for “cabbage”, “(25 °C,” for “(25° C.,”, “h.” for “hrs.”
compound,measurement,setting,value
COc1ccc(Oc2ccc(CCNc3nc(C)nc(Cl)c3Cl)cn2)cc1 [III-2539],control (test results against diamond back moth),Diamond back moth; 600 ppm,80%-99%
same,control against carmine spider mite,carmine spider mite; 100 ppm,80%-99%
same,protectant activity against cucumber downy mildew in vivo,cucumber downy mildew; 12.5 ppm,80%-99%
same,inhibition rate against rice blast,rice blast; 25 ppm,80%-99%
same,protectant activity against wheat powdery mildew in vivo,wheat powdery mildew; 400 ppm,80%-99%
Cc1ncnc(NCCc2ccc(Oc3cccc(Cl)c3)nc2)c1Cl [III-6],control (test results against green peach aphid),[1]; 100 ppm,80%-99%
same,inhibition rate against rice blast,rice blast; 25 ppm,80%-99%
Cc1ncnc(NCCc2ccc(Oc3cc(Cl)ccc3Cl)nc2)c1Cl [III-83],control (test results against diamond back moth),Diamond back moth; 600 ppm,80%-99%
same,control against carmine spider mite,carmine spider mite; 600 ppm,80%-99%
same,inhibition rate against rice blast,rice blast; 25 ppm,80%-99%
CCc1ncnc(NCCc2ccc(Oc3ccc(Cl)cc3Cl)cc2)c1Cl [II-299],protectant activity against corn rust in vivo,corn rust; 6.25 ppm,80%-99%
same,protectant activity against corn rust in vivo,corn rust; 25 ppm,80%-99%
same,control (test results against green peach aphid),[1]; 5 ppm,80%-99%
same,control (test results against green peach aphid),[1]; 10 ppm,80%-99%
same,protectant activity against cucumber downy mildew in vivo,cucumber downy mildew; 50 ppm,80%-99%
same,protectant activity against wheat powdery mildew in vivo,wheat powdery mildew; 25 ppm,80%-99%
same,protectant activity against wheat powdery mildew in vivo,wheat powdery mildew; 100 ppm,80%-99%
Cc1cc(Cl)ccc1Oc1ccc(CCNc2ncnc(C)c2Cl)cn1 [III-110],control (test results against armyworm),armyworm; 600 ppm,80%-99%
same,inhibition rate against rice blast,rice blast; 25 ppm,80%-99%
same,protectant activity against wheat powdery mildew in vivo,wheat powdery mildew; 100 ppm,80%-99%
Cc1ncnc(NCCc2ccc(Oc3ccc(C(F)(F)F)cn3)cc2)c1Br [Compound I-1762],control (test results against armyworm),armyworm; 600 ppm,80%-99%
same,inhibition rate against rice blast,rice blast; 25 ppm,100%
Cc1ncnc(NCCc2ccc(Oc3cc(Cl)cc(Cl)c3)cc2)c1Cl [II-25],protectant activity against corn rust in vivo,corn rust; 400 ppm,80%-99%
same,control (test results against green peach aphid),[1]; 100 ppm,80%-99%
same,protectant activity against cucumber downy mildew in vivo,cucumber downy mildew; 25 ppm,80%-99%
same,protectant activity against cucumber downy mildew in vivo,cucumber downy mildew; 50 ppm,80%-99%
same,protectant activity against cucumber downy mildew in vivo,cucumber downy mildew; 100 ppm,80%-99%
same,inhibition rate against rice blast,rice blast; 25 ppm,80%-99%
same,protectant activity against wheat powdery mildew in vivo,wheat powdery mildew; 100 ppm,80%-99%
CCc1ncnc(NCCc2ccc(Oc3ccc(C)cc3)nc2)c1Cl [III-196],control (test results against armyworm),armyworm; 100 ppm,80%-99%
same,protectant activity against corn rust in vivo,corn rust; 100 ppm,80%-99%
same,control (test results against green peach aphid),[1]; 10 ppm,80%-99%
same,control against carmine spider mite,carmine spider mite; 100 ppm,80%-99%
same,protectant activity against cucumber downy mildew in vivo,cucumber downy mildew; 6.25 ppm,80%-99%
same,protectant activity against cucumber downy mildew in vivo,cucumber downy mildew; 12.5 ppm,80%-99%
same,inhibition rate against rice blast,rice blast; 25 ppm,80%-99%
Cc1ncnc(NCCc2ccc(Oc3ccc(C(F)(F)F)cc3)nc2)c1Cl [III-22],control (test results against diamond back moth),Diamond back moth; 100 ppm,80%-99%
same,protectant activity against corn rust in vivo,corn rust; 400 ppm,80%-99%
same,inhibition rate against rice blast,rice blast; 25 ppm,80%-99%
same,protectant activity against wheat powdery mildew in vivo,wheat powdery mildew; 100 ppm,80%-99%
CCc1ncnc(NCCc2ccc(Oc3ncccc3C(F)(F)F)cc2)c1Cl [Compound I-987],protectant activity against corn rust in vivo,corn rust; 6.25 ppm,80%-99%
same,protectant activity against corn rust in vivo,corn rust; 25 ppm,80%-99%
same,protectant activity against cucumber downy mildew in vivo,cucumber downy mildew; 50 ppm,80%-99%
same,protectant activity against cucumber downy mildew in vivo,cucumber downy mildew; 100 ppm,80%-99%
same,inhibition rate against rice blast,rice blast; 8.3 ppm,80%-99%
same,inhibition rate against rice blast,rice blast; 25 ppm,100%
same,protectant activity against wheat powdery mildew in vivo,wheat powdery mildew; 25 ppm,80%-99%
COc1ccc(Oc2ccc(CCNc3ncnc(C)c3Cl)cn2)cc1 [III-19],protectant activity against corn rust in vivo,corn rust; 100 ppm,80%-99%
same,control against carmine spider mite,carmine spider mite; 100 ppm,80%-99%
same,protectant activity against cucumber downy mildew in vivo,cucumber downy mildew; 6.25 ppm,80%-99%
same,protectant activity against cucumber downy mildew in vivo,cucumber downy mildew; 12.5 ppm,80%-99%
same,inhibition rate against rice blast,rice blast; 25 ppm,80%-99%
CCc1ncnc(NCCc2ccc(Oc3ccc(C#N)cc3F)cc2)c1Cl [II-482],control (test results against armyworm),armyworm; 10 ppm,80%-99%
same,control against carmine spider mite,carmine spider mite; 2.5 ppm,80%-99%
same,protectant activity against cucumber downy mildew in vivo,cucumber downy mildew; 12.5 ppm,80%-99%
same,inhibition rate against rice blast,rice blast; 25 ppm,80%-99%
same,protectant activity against wheat powdery mildew in vivo,wheat powdery mildew; 6.25 ppm,80%-99%
Cc1ncnc(NCCc2ccc(Oc3cccc(C(F)(F)F)c3)nc2)c1Cl [III-21],control (test results against green peach aphid),[1]; 100 ppm,80%-99%
same,inhibition rate against rice blast,rice blast; 25 ppm,80%-99%
CCc1ncnc(NCCc2ccc(Oc3cccc(C(F)(F)F)c3)nc2)c1Cl [III-201],control (test results against armyworm),armyworm; 100 ppm,80%-99%
same,protectant activity against corn rust in vivo,corn rust; 25 ppm,80%-99%
same,protectant activity against cucumber downy mildew in vivo,cucumber downy mildew; 12.5 ppm,80%-99%
same,inhibition rate against rice blast,rice blast; 25 ppm,80%-99%
Cc1ncnc(NCCc2ccc(Oc3ccccc3Cl)nc2)c1Cl [III-5],protectant activity against corn rust in vivo,corn rust; 400 ppm,80%-99%
same,control (test results against green peach aphid),[1]; 100 ppm,80%-99%
same,inhibition rate against rice blast,rice blast; 25 ppm,80%-99%
same,protectant activity against wheat powdery mildew in vivo,wheat powdery mildew; 100 ppm,80%-99%
